Experimental data reported in paper PMC9010289.
Like-named read-outs stand apart in the source and are kept apart here. No constants are given. Whether binding was seen depends on the method and setting. In cells and extracts the contact can be indirect. Some results given as binding are weak or reduced against the parent protein; the word gives no strength.

By UniProt entry, the sequences of proteins in these tests, tags left out. Residues count along the entry.
UniProt Q9Z2I0, residues 115-738: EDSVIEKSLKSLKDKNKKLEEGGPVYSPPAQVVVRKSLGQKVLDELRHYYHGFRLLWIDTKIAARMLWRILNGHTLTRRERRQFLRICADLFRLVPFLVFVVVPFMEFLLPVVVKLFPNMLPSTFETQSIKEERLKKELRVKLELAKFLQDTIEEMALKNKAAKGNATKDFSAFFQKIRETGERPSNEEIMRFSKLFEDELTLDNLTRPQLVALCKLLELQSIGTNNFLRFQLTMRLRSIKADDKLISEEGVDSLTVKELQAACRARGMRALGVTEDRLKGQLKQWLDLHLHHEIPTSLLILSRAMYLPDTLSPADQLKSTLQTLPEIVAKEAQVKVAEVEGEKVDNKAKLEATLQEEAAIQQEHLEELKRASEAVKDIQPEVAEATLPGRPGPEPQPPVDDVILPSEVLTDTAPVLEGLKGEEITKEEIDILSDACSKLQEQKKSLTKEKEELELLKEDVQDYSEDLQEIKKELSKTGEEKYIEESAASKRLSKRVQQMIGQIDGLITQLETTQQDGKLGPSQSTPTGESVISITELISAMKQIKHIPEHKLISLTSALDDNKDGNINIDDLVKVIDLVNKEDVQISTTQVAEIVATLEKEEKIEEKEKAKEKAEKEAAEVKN
UniProt Q704Y3: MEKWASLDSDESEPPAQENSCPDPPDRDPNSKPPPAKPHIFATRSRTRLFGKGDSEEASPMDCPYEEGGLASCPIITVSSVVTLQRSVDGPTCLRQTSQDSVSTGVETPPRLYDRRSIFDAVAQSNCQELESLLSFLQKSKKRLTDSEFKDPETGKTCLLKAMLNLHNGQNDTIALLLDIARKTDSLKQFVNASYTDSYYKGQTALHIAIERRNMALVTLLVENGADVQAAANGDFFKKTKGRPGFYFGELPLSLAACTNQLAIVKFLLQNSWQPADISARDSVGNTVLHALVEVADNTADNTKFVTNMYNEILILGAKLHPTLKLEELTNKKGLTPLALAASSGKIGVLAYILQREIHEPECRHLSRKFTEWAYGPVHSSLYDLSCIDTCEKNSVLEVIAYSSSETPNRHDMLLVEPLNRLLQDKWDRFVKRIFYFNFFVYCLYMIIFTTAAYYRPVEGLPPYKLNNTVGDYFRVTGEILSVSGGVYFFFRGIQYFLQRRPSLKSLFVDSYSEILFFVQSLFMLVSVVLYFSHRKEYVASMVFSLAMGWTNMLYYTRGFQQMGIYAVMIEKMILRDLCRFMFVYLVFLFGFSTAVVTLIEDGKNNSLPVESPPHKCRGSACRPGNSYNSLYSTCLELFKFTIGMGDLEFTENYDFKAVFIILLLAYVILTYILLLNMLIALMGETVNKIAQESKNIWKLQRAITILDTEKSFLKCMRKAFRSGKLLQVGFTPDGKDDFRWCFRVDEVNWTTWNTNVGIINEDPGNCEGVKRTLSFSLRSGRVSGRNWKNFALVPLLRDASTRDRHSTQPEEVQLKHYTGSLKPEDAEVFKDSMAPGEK

T1: Uncoupling protein 1 (mouse (endogenous in brown adipose tissue)) (UniProt P12242)
T1 sequence: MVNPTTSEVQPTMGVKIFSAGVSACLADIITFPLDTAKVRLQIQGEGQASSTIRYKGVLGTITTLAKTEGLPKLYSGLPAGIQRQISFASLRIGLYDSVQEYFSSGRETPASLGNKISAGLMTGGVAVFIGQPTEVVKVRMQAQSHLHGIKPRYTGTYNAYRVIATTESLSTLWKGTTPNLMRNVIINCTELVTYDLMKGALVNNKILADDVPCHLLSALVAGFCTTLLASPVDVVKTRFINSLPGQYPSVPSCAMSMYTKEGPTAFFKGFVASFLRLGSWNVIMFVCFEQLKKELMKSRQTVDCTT

B1: Uncoupling protein 1 (protein, UniProt P12242 1-307)
chain: T1 sequence

What was measured:
Assay in all cases: co-IP; mouse BAT mitochondria of WT mice in lysis buffer; 1 µg anti-TRPV1/UCP1/LETM1 primary antibody or IgG overnight; protein A agarose; detected by immunoblotting
[1] = target: T1, Uncoupling protein 1 (mouse (endogenous in brown adipose tissue))
[2] = target: Leucine zipper-EF-hand containing transmembrane protein 1 (mouse (endogenous in brown adipose tissue)) (UniProt Q9Z2I0)
[3] = target: Leucine zipper-EF-hand containing transmembrane protein 1 (mouse (endogenous in brown adipose tissue)) (UniProt Q9Z2I0); remark: listed apart in the source

| Molecule | binding [1] | binding [2] | binding [3] |
| --- | --- | --- | --- |
| Transient receptor potential vanilloid-1 (from UniProt Q704Y3 1-839) | binds | binds | – |
| B1 | – | – | binds |
